# Among all 300,000 compounds or so, about 5,400 (1.8%) were called active. The inconclusive results got no clear call from the source; some entries with a clear call stand among them for comparison. The call rests on the fitted dose curve; tested in HEK293 cells. Where the call is inconclusive, the potency comes from a doubtful curve fit.
# Experiment: qHTS for inhibitors of binding or entry into cells for Marburg Virus
# Details: Marburg virus pseudotyped entry inhibition, cell reporter; activity change, negative = inhibition: at 37.8 µM (top of the series) unless noted
# On the % scale 0 is the no-effect control and ±100 the full control effect; potency means the concentration at half of the fitted maximal effect.
SMILES,"activity change, negative = inhibition",Potency
Cc1ccc(SC(=O)c2c(C)noc2-c2cc(C)on2)cc1,inactive: -6.65% [at 46.1 µM],–
Cc1oc(-c2ccc(-c3ccccc3)cc2)nc1CN(CCO)C(C)C,–,"inconclusive: 35.5 µM [inhibitor, single point]"
Cc1oc(-c2ccc(Cl)cc2)nc1CN1CCC(C(=O)N2CCN(Cc3ccccc3)CC2)CC1,inactive: 5.92%,–
CCOc1ccccc1N1CC(c2nc3ccccc3n2CCCOc2ccccc2)CC1=O (centres undefined),–,"inconclusive: 28.2 µM [inhibitor, single point]"
Cc1cccnc1NC(=O)Cn1nc(C)c([N+](=O)[O-])c1C,–,"inconclusive: 22.4 µM [activator, single point]"
Cc1cccc2c(C(=O)Nc3ccc(Br)cc3)cc(-c3ccccn3)nc12,–,"inconclusive: 1.78 µM [inhibitor, single point]"
CCCNc1nc2nc3ccccn3c(=O)c2cc1C(=O)NCCN1CCOCC1,–,"inconclusive: 10 µM [inhibitor, partial curve]"
CCOC(=O)C1CCN(C(=O)c2nn(-c3ccc(C)cc3)c(=O)c3c2c2ccccc2n3C)CC1,inactive: -1.36% [at 46.1 µM],–
O=Cc1ccc(C(=O)OCC(=O)N2CCCC2)cc1,inactive: 16.4% [at 46.1 µM],–
CC(=NN=C(C)c1ccc(O)cc1)c1ccc(O)cc1,inactive: -0.575% [at 46.1 µM],–
Cc1cc(OC(C)C(=O)N2CCN(CCc3ccccn3)CC2)ccc1Cl (centres undefined),–,"inconclusive: 1.12 µM [inhibitor, full curve, poor fit]"
Cc1ccc(-c2ccccc2[C@@H]2C[C@H]3CN(C)C(=O)[C@]34CCCN24)o1,inactive: 7.99% [at 46.1 µM],–
CCn1cc(S(=O)(=O)Nc2ccc3c(c2)OCCO3)cn1,inactive: -13% [at 14.2 µM],–
Cc1ccc2nc(NC(=O)[C@H](C)N3C(=O)C4CC=CCC4C3=O)sc2c1 (some centres undefined),inactive: 6.37% [at 46.1 µM],–
O=c1c(-c2nc3ccccc3s2)cccn1Cc1ccccc1,–,"inconclusive: 4.11 µM [activator, partial curve, poor fit]"
Cc1nn(-c2ccccc2)c2c1C(O)n1c(nc3ccccc31)S2 (centres undefined),–,"inconclusive: 18.3 µM [inhibitor, partial curve]"
Cc1ccc(-n2cc3c(-c4cccc(Br)c4)nnc(C)c3n2)cc1,–,"inconclusive: 29.1 µM [inhibitor, single point]"
COc1ccc(Nc2ncc(C(=O)N3CCN(c4ccc(OC)cc4)CC3)c3ccccc23)cc1,–,"inconclusive: 12.6 µM [inhibitor, partial curve, poor fit]"
CCOc1ccccc1NC(=O)c1cc(CC(C)C)oc1C,inactive: -23.9%,–
CCOC(=O)C(NC(=O)CC)(Nc1ccc(S(=O)(=O)Nc2cc(C)on2)cc1)C(F)(F)F (centres undefined),–,inactive
CC(C)Oc1cccc(OCCN2C(=O)c3ccccc3C2=O)c1,–,"inconclusive: 35.5 µM [activator, single point]"
CN1CCN(C(=O)c2c(NC(=O)c3ccco3)sc3c2CCC(C(C)(C)C)C3)CC1 (centres undefined),–,"inconclusive: 29.1 µM [inhibitor, single point]"
COc1cc(NC(=O)c2cccc(Cl)c2)c(OC)cc1NC(=O)CN1CCOCC1,–,"inconclusive: 31.6 µM [inhibitor, single point]"

# Looked up above:
# Entry of COc1cc(NC(=O)c2cccc(Cl)c2)c(OC)cc1NC(=O)CN1CCOCC1 under Potency: inconclusive: 31.6 µM [inhibitor, single point]
# Entry of O=Cc1ccc(C(=O)OCC(=O)N2CCCC2)cc1 under activity change, negative = inhibition: inactive: 16.4% [at 46.1 µM]
# Entry of Cc1cccc2c(C(=O)Nc3ccc(Br)cc3)cc(-c3ccccn3)nc12 under Potency: inconclusive: 1.78 µM [inhibitor, single point]
# Entry of COc1ccc(Nc2ncc(C(=O)N3CCN(c4ccc(OC)cc4)CC3)c3ccccc23)cc1 under Potency: inconclusive: 12.6 µM [inhibitor, partial curve, poor fit]

# Later entries.

SMILES,"activity change, negative = inhibition",Potency
CC(C)N1C(=O)NC(=O)C2(Cc3cc([N+](=O)[O-])ccc3N(C)C2c2ccccc2)C1=O (centres undefined),–,"inconclusive: 0.562 µM [inhibitor, full curve, poor fit]"
COc1cccc(NC(=O)Cn2cnc3sc(C)c(S(=O)(=O)N4CCN(C)CC4)c3c2=O)c1,–,"inconclusive: 2 µM [inhibitor, partial curve, poor fit]"
O=C(CSc1ccccc1)N1CCN(S(=O)(=O)c2cccs2)CC1,inactive: 2.94% [at 46.1 µM],–
S=C(Nc1ccccc1)N1CCC(Cc2ccccc2)CC1,–,"inconclusive: 28.2 µM [inhibitor, single point]"
CCOC(=O)c1sc2nc(CSCC(=O)OCc3ccc(C(=O)OC)o3)[nH]c(=O)c2c1C,–,inactive
CCCCCC/C(=N/O)c1ccccn1,–,"inconclusive: 35.5 µM [inhibitor, single point]"
CCOC(=O)C1=NOC(CNC(=O)c2ccccc2Cl)C1 (centres undefined),–,"inconclusive: 3.16 µM [inhibitor, single point]"
C=C(C)CN1CCN(S(=O)(=O)c2ccc(C)c(N(C)S(=O)(=O)c3ccc(C)cc3)c2C)CC1,–,"inconclusive: 22.4 µM [inhibitor, single point]"
CCOc1cc(C(=S)N2CCOCC2)ccc1OS(=O)(=O)c1ccc(OC)cc1,–,"inconclusive: 22.4 µM [inhibitor, single point]"
COc1ccc(NC(=O)CNC(=O)c2ccco2)cc1S(=O)(=O)Nc1cc(C)ccc1Br,–,"inconclusive: 35.5 µM [inhibitor, single point]"
NC(=O)N/N=C/c1cn(-c2ccccc2)nc1-c1cccs1,inactive: 0.354% [at 46.1 µM],–
Cc1oc(-c2ccccc2Cl)nc1CN1C(=O)CN=C(c2ccccc2)c2ccccc21,–,"inconclusive: 32.6 µM [inhibitor, single point]"
COc1cccc(CNC(=O)COC(=O)c2ccc(Cl)s2)c1,–,"inconclusive: 4.47 µM [inhibitor, single point]"
C1CCC(Nc2nnnn2C2CCCCC2)CC1,inactive: -2.43% [at 46.1 µM],–
CCOC(=O)c1[nH]c2ccccc2c1NC(=O)c1c(F)cccc1F,–,"inconclusive: 1 µM [activator, partial curve, poor fit]"
CC1CC(=O)Nc2ccccc2N1S(=O)(=O)c1ccc(F)cc1F (centres undefined),inactive: 1.68% [at 46.1 µM],–
CCN(CC)C(=O)CSc1nc2c(c(-c3cccnc3)c1C#N)CCCC2,–,"inconclusive: 7.08 µM [inhibitor, partial curve, poor fit]"
O=S(=O)(c1ccc(F)cc1)N1CCN(CCc2ccccc2)CC1,inactive: -19%,–
Cn1c(-c2ccc(C(=O)c3ccccc3)s2)nc2ccccc21,–,"inconclusive: 12.6 µM [inhibitor, partial curve, poor fit]"
COc1ccc(C(CNC(=O)c2cccc(NS(=O)(=O)c3ccc(C)c(F)c3)c2)N(C)C)cc1 (centres undefined),–,"inconclusive: 15.8 µM [inhibitor, partial curve, poor fit]"
Cc1ccc(C(=O)COC(=O)CNC(=O)Cc2ccccc2)cc1,–,"inconclusive: 5.62 µM [activator, single point]"
O=C(O)c1ccc2c(c1)C(=O)N(CCc1c[nH]c3ccccc13)C2=O,–,"inconclusive: 3.16 µM [activator, partial curve, poor fit]"
CC1CCCCN1C(=O)c1ccc2c(c1)N(Cc1ccc(Cl)cc1)C(=O)c1ccccc1S2=O (centres undefined),–,"inconclusive: 0.562 µM [activator, full curve, poor fit]"

SMILES,"activity change, negative = inhibition",Potency
CCOc1ccc(/C=N/NC(=S)Nc2c(C)cccc2C)cc1,–,"inconclusive: 10 µM [inhibitor, partial curve]"
C=CCc1cc(C(=O)N2CCCCC2)ccc1O,inactive: -14.6%,–
Cc1ccc(-n2ncc3c2CC(C)(C)CC3NC(=O)Cc2c(C)noc2C)cc1 (centres undefined),–,"inconclusive: 10 µM [inhibitor, partial curve, poor fit]"
O=C(Nc1cccc(-c2nn[nH]n2)c1)c1ccc(Br)s1,inactive: -1.03%,–
COc1cccc(C2=NOC(C(=O)NCc3ccco3)C2)c1 (centres undefined),inactive: -26%,–
O=C(NC1=NCCS1)C1CCCCC1,–,"inconclusive: 1 µM [inhibitor, partial curve, poor fit]"
CCCN(CC#CCO)CCC,–,"inconclusive: 6.31 µM [inhibitor, single point]"
Cc1ccc(-c2cc(C(=O)Nc3ccc4c(c3)OCCO4)c3ccccc3n2)cc1,–,"inconclusive: 35.5 µM [inhibitor, single point]"
CC(c1ccccc1)N1C(=O)C2C3CCC(C3)C2C1=O (centres undefined),–,"inconclusive: 2.51 µM [activator, partial curve, poor fit]"
COCCCn1c(=N)c(C(N)=S)cc2c(=O)n3cccc(C)c3nc21,–,"inconclusive: 10 µM [inhibitor, partial curve, poor fit]"
C=CCOC(=O)C1=C(C)NC(SC)=C(C#N)C1c1cccs1 (centres undefined),–,"inconclusive: 0.562 µM [inhibitor, partial curve, poor fit]"
Cc1cc(C)n(C(=O)c2cc(F)c(F)cc2C)n1,inactive: 13.2%,–
CCn1c(=O)cc(OCC(=O)N2CCN(c3cccc(C(F)(F)F)c3)CC2)c2ccccc21,–,"inconclusive: 29.1 µM [inhibitor, single point]"
CC(C)Oc1ccc(C(=O)N/N=C/c2ccc(-c3ccc(S(=O)(=O)Nc4ncccn4)cc3)o2)cc1,–,"inconclusive: 0.891 µM [inhibitor, single point]"
COc1ccc(C(=O)Cn2cnc3ccccc3c2=O)cc1,inactive: 4.83% [at 46.1 µM],–
CCc1cc(C(=O)COc2ccc(F)cc2)c(O)cc1O,–,"inconclusive: 14.6 µM [activator, partial curve]"
CCOC(=O)c1c(C)n(-c2ccccc2)c2ccc(OCCN(C)C)cc12,–,"inconclusive: 7.94 µM [inhibitor, partial curve, poor fit]"
Cc1ccc(C2=N/C(=C\c3cccs3)C(=O)N2Nc2ccccc2)cc1,–,"inconclusive: 10 µM [inhibitor, partial curve, poor fit]"
CC(C)OCCCNC(=O)CCCn1c(SCC(=O)c2ccc(Br)cc2)nc2c(sc3ccccc32)c1=O,inactive: 13.8% [at 46.1 µM],–
O=C(NC1CC1)c1ccc(-c2nc3ccccc3s2)s1,–,active: 1.41 µM
O=C(NC(=S)Nc1cccc(C(F)(F)F)c1)c1ccc2nonc2c1,–,"inconclusive: 14.1 µM [inhibitor, partial curve, poor fit]"
Cc1ccc(C(=O)OCC(=O)NCC(F)(F)F)cc1C,inactive: -1.95%,–
CCC(=O)Oc1ccc(-c2nc(-c3cccnc3)no2)cc1,–,"inconclusive: 20.6 µM [inhibitor, single point]"
